Where a name gives a salt, the structure may show the parent alone. Some of the results follow. Repeats in this data set agree poorly, so a single value says little.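 A first-round screen of about ten thousand compounds sought those raising reporter output, using human embryonic kidney cells briefly transfected with a plasmid carrying a Renilla luciferase gene driven by the HSV-TK promoter.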
Tested on: HEK 293FT
Assay: log relative Renilla luciferase luminescence (reporter expression vs reference, reference not stated) (log (base not stated)); higher = higher recombinant reporter expression
Conditions: 10 µM; time after transfection 48 h

Compound | log
CCc1c2c(nc3ccc(OC(=O)N4CCC(N5CCCCC5)CC4)cc13)-c1cc3c(c(=O)n1C2)COC(=O)[C@]3(O)CC [IRINOTECAN HCl )trihydrate)] | -0.826
Clc1cccc(Cl)c1NC1=NCCN1 | -0.368
Nc1nc(Cl)nc2c1ncn2[C@H]1C[C@H](O)[C@@H](CO)O1 | -0.378
C[C@H]1COc2c(C3(N)CC3)c(F)cc3c(=O)c(C(=O)O)cn1c23 | -0.108
CC#C[C@]1(O)CC[C@H]2[C@@H]3CCC4=CC(=O)CCC4=C3[C@@H](c3ccc(N(C)C)cc3)C[C@@]21C | -0.141
COc1ccccc1N1CCN(CCCNc2cc(=O)n(C)c(=O)n2C)CC1 | 0.244
COc1ccc(CC(C)NCC(O)c2ccc(O)c(NC=O)c2)cc1 (stereo not given) | -0.0978
CN(Cc1cnc2nc(N)nc(N)c2n1)c1ccc(C(=O)N[C@@H](CCC(=O)O)C(=O)O)cc1 | -0.277
CN1CCCC(n2nc(Cc3ccc(Cl)cc3)c3ccccc3c2=O)CC1 (stereo not given) | 0.0325
CN1[C@@H]2CC[C@H]1C[C@@H](OC(=O)c1c[nH]c3ccccc13)C2 | -0.284
CCN1CCC[C@H]1CNC(=O)c1cc(S(N)(=O)=O)ccc1OC | -0.0993
CN1CCN(c2c(F)cc3c(=O)c(C(=O)O)cn4c3c2SCC4)CC1 | -0.06
COC1=C(OC)C(=O)C(CCCCCCCCCCO)=C(C)C1=O | -0.0818
CN1CC(=O)N2[C@H](c3ccc4c(c3)OCO4)c3[nH]c4ccccc4c3C[C@@H]2C1=O | -0.0868
CN(C)CC[C@@H](c1ccc(Br)cc1)c1ccccn1 | -0.437
CCCCC1=NC2(CCCC2)C(=O)N1Cc1ccc(-c2ccccc2-c2nnn[nH]2)cc1 | -0.242
C[C@]12CCC(=O)C=C1CC[C@@H]1[C@@H]2C(=O)C[C@@]2(C)[C@H]1CC[C@]2(O)C(=O)CO | -0.174
CC1=Nc2ccc(Cl)cc2S(=O)(=O)N1 | -0.162
O=C(O)CCNC(=O)c1ccc(/N=N/c2ccc(O)c(C(=O)O)c2)cc1 | 0.0907
C/C=C1\[C@H]2C=C(C)C[C@]1(N)c1ccc(=O)[nH]c1C2 | -0.105

Part of the list above, tab-delimited:
Compound	log
CCc1c2c(nc3ccc(OC(=O)N4CCC(N5CCCCC5)CC4)cc13)-c1cc3c(c(=O)n1C2)COC(=O)[C@]3(O)CC [IRINOTECAN HCl )trihydrate)]	-0.826
Clc1cccc(Cl)c1NC1=NCCN1	-0.368
Nc1nc(Cl)nc2c1ncn2[C@H]1C[C@H](O)[C@@H](CO)O1	-0.378
C[C@H]1COc2c(C3(N)CC3)c(F)cc3c(=O)c(C(=O)O)cn1c23	-0.108
CC#C[C@]1(O)CC[C@H]2[C@@H]3CCC4=CC(=O)CCC4=C3[C@@H](c3ccc(N(C)C)cc3)C[C@@]21C	-0.141
COc1ccccc1N1CCN(CCCNc2cc(=O)n(C)c(=O)n2C)CC1	0.244
COc1ccc(CC(C)NCC(O)c2ccc(O)c(NC=O)c2)cc1 (stereo not given)	-0.0978

Going on with the list:

Compound | log
CC(C)(C#N)c1cc(Cn2cncn2)cc(C(C)(C)C#N)c1 | 0.113
Cc1nccn1CC1CCc2c(c3ccccc3n2C)C1=O (stereo not given) | 0.0133
CO[C@@H]1[C@@H](O[C@@H]2O[C@H](C)[C@@H](O[C@H]3C[C@@](C)(O)[C@@H](OC(=O)CC(C)C)[C@H](C)O3)[C@H](N(C)C)[C@H]2O)[C@@H](CC=O)C[C@@H](C)[C@@H](O)/C=C/C=C/C[C@@H](C)OC(=O)C[C@H]1O | -0.112
COc1cc(CNC(=O)CCCC/C=C/C(C)C)ccc1O [Capsaicin] | 0.171
COCCCOc1ccnc(C[S+]([O-])c2nc3ccccc3[nH]2)c1C (stereo not given) | -0.0247
Cc1onc(-c2ccccc2)c1-c1ccc(S(N)(=O)=O)cc1 | -0.019
C#C[C@]1(O)CC[C@H]2[C@@H]3CCC4=CC(=O)CC[C@@H]4[C@H]3CC[C@@]21CC | 0.0336
C[N+]1(C)CCC(OC(=O)C(O)(c2ccccc2)C2CCCC2)C1 (stereo not given) | -0.0272
COc1cc(OC)c(C(=O)CCCN2CCCC2)c(OC)c1 | 0.000416
O=C1Nc2ccc(Cl)cc2[C@@](C#CC2CC2)(C(F)(F)F)O1 | -0.245
O=C(NCCO[N+](=O)[O-])c1cccnc1 | -0.381
O=C(CCCN1CCC(O)(c2ccc(Cl)cc2)CC1)c1ccc(F)cc1 [Haloperidol] | 0.141
Clc1ccc(CO/N=C(\Cn2ccnc2)c2ccc(Cl)cc2Cl)c(Cl)c1 | -0.28
CN(C)CCc1c[nH]c2ccc(C[C@H]3COC(=O)N3)cc12 [Zolmitriptan] | 0.078
Nc1c2c(nc3c1CCC3)CCCC2 | 0.0493
C[C@@H]1CN(CCCn2c3ccccc3c3ccccc32)C[C@H](C)N1 [Rimcazole] | 0.24
Nc1ccn([C@@H]2CS[C@H](CO)O2)c(=O)n1 | -0.143
CO[C@H]1/C=C/O[C@@]2(C)Oc3c(C)c(O)c4c(c3C2=O)C2=NC3(CCN(CC(C)C)CC3)NC2=C(NC(=O)/C(C)=C\C=C\[C@H](C)[C@H](O)[C@@H](C)[C@@H](O)[C@@H](C)[C@H](OC(C)=O)[C@@H]1C)C4=O | 0.00924
COc1cc(C)c(Cc2cnc(N)nc2N)cc1OC | -0.00738
CN[C@H]1CC[C@@H](c2ccc(Cl)c(Cl)c2)c2ccccc21 [Sertraline] | -0.139
